Test results as given in article doi:10.1101/2024.03.18.585606.
No constants are given. Whether binding was seen depends on the method and setting. Binding seen in cells or lysates may run through a third protein. Some binding calls cover weakened binding; strength is not graded here. Where a sequence is shown, tags or fusion partners need not be part of it.

By UniProt entry, the sequences of proteins in these tests, tags left out.
UniProt Q15648: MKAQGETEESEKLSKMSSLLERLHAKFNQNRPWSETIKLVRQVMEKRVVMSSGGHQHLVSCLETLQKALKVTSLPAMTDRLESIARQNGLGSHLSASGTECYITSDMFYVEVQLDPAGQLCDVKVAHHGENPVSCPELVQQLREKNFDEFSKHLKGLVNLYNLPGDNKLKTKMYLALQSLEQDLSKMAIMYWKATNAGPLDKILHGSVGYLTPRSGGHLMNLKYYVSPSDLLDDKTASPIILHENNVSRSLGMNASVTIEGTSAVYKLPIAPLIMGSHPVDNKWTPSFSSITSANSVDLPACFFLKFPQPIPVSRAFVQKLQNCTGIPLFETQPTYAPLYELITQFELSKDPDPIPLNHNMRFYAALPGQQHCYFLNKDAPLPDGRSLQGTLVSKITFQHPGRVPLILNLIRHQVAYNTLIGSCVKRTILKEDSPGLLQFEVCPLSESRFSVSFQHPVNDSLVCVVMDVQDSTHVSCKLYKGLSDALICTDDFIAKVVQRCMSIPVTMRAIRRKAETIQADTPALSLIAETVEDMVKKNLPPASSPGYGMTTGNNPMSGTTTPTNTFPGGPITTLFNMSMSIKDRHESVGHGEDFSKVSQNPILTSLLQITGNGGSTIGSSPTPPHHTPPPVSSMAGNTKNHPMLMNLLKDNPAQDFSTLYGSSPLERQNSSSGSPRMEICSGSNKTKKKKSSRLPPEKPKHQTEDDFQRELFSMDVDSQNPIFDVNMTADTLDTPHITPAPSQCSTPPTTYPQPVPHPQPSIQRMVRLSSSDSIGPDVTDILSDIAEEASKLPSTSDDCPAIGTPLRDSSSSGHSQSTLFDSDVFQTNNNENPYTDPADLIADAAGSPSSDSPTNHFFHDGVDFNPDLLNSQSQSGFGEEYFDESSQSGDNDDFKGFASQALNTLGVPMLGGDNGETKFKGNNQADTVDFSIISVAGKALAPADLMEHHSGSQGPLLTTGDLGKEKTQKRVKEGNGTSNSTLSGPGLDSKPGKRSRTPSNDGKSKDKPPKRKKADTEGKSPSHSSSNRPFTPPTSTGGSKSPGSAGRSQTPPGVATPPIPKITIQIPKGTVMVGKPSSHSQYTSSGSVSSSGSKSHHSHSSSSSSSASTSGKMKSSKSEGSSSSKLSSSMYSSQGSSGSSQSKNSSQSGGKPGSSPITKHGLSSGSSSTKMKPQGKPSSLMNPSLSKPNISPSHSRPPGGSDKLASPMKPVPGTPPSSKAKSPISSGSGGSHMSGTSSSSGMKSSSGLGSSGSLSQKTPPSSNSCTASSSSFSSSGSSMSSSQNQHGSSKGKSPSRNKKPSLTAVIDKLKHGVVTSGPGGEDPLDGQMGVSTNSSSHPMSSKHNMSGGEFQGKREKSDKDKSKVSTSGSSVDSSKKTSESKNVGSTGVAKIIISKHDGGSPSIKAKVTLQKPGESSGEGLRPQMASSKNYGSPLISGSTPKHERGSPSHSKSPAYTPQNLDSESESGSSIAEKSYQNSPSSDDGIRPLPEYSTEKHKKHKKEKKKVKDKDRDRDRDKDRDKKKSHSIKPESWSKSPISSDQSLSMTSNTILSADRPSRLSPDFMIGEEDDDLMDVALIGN
UniProt Q09472: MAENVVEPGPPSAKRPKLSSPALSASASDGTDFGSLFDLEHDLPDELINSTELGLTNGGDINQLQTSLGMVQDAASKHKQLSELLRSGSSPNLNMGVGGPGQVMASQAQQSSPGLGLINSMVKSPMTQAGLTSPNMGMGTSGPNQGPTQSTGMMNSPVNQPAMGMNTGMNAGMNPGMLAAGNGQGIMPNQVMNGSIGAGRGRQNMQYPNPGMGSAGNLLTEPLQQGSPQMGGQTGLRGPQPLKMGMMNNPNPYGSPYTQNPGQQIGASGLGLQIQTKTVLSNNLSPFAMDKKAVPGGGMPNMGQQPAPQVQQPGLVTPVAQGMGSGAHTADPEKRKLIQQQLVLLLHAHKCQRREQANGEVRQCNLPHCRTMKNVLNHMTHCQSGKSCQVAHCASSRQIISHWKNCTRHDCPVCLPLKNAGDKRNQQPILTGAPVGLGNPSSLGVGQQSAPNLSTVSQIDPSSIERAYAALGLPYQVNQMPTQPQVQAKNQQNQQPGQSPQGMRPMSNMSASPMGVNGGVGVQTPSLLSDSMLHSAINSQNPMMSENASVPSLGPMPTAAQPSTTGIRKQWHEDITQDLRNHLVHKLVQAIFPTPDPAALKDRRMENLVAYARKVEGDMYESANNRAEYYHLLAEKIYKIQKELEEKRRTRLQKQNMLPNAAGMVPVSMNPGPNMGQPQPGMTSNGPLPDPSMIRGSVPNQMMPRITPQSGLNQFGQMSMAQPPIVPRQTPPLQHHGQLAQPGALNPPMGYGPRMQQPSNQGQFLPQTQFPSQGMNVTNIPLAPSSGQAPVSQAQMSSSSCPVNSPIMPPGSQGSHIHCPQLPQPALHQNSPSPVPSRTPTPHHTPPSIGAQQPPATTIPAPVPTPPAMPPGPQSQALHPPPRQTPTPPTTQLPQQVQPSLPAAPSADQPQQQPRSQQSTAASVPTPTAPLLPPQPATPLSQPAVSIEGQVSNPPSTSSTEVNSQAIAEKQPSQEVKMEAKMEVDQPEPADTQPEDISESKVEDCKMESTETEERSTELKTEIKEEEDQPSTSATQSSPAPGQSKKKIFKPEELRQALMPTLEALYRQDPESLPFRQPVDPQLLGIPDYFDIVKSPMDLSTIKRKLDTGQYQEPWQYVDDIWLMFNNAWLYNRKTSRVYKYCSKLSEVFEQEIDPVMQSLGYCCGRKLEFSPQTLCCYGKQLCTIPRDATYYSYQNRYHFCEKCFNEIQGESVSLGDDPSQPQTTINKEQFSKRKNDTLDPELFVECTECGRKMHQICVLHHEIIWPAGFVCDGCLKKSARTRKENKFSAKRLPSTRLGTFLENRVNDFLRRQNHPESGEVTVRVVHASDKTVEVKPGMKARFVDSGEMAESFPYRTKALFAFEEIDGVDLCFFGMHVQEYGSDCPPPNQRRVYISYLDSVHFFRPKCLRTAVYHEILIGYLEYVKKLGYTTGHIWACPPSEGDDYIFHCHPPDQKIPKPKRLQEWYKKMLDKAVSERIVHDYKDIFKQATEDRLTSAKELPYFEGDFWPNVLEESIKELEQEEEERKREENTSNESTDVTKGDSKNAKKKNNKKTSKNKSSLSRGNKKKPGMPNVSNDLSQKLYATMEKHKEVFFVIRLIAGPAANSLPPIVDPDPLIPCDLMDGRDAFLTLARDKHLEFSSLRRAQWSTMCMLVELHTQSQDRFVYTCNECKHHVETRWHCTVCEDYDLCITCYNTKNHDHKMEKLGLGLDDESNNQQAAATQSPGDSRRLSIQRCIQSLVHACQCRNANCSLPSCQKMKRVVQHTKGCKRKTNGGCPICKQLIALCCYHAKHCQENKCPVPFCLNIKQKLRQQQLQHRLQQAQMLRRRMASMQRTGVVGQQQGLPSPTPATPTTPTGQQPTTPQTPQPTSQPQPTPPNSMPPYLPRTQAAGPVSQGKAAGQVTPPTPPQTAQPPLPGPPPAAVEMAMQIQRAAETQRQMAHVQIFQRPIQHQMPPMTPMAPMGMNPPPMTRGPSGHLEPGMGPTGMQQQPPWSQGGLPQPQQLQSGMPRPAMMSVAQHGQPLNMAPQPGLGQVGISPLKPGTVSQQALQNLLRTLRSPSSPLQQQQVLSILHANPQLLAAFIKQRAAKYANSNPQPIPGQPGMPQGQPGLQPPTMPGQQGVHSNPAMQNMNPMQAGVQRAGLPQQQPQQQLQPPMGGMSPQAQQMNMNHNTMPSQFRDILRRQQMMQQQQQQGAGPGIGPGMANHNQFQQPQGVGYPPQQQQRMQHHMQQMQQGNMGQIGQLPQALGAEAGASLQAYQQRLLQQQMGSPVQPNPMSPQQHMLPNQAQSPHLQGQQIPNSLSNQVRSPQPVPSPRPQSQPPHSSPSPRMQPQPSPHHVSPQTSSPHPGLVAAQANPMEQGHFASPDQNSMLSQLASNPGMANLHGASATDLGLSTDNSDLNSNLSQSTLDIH

T1: FLAG-tagged human MED10 (human) (UniProt Q9BTT4)
T1 sequence: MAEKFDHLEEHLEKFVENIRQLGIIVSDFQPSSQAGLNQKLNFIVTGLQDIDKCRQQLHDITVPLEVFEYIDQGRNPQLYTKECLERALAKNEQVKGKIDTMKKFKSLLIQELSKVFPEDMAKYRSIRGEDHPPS

B1: MED17 (protein, UniProt Q9NVC6 1-651)
chain: MSGVRAVRISIESACEKQVHEVGLDGTETYLPPLSMSQNLARLAQRIDFSQGSGSEEEEAAGTEGDAQEWPGAGSSADQDDEEGVVKFQPSLWPWDSVRNNLRSALTEMCVLYDVLSIVRDKKFMTLDPVSQDALPPKQNPQTLQLISKKKSLAGAAQILLKGAERLTKSVTENQENKLQRDFNSELLRLRQHWKLRKVGDKILGDLSYRSAGSLFPHHGTFEVIKNTDLDLDKKIPEDYCPLDVQIPSDLEGSAYIKVSIQKQAPDIGDLGTVNLFKRPLPKSKPGSPHWQTKLEAAQNVLLCKEIFAQLSREAVQIKSQVPHIVVKNQIISQPFPSLQLSISLCHSSNDKKSQKFATEKQCPEDHLYVLEHNLHLLIREFHKQTLSSIMMPHPASAPFGHKRMRLSGPQAFDKNEINSLQSSEGLLEKIIKQAKHIFLRSRAAATIDSLASRIEDPQIQAHWSNINDVYESSVKVLITSQGYEQICKSIQLQLNIGVEQIRVVHRDGRVITLSYQEQELQDFLLSQMSQHQVHAVQQLAKVMGWQVLSFSNHVGLGPIESIGNASAITVASPSGDYAISVRNGPESGSKIMVQFPRNQCKDLPKSDVLQDNKWSHLRGPFKEVQWNKMEGRNFVYKMELLMSALSPCLL

target: T1, FLAG-tagged human MED10 (human); assay: co-IP

binding | Molecule
binds | MED1 (from UniProt Q15648 1-1581)
no binding | p300 (from UniProt Q09472 1-2414)
binds | B1
